Record: PubChem BioAssay AID493246 (Drosophila RNAi Screening Center, 2011)
In all, the deposit lists about 21,000 reagents; below is a random part of those that have a named target and a result. In the full data, 429 (2%) got an active call. 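Values are raw and not normalised between plates; calls rest on per-plate z-scores that were not deposited.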 A plus sign joins genes that one reagent is predicted to hit. Not given: the amount of reagent, the time to read-out.

Purpose: 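Genome-wide search for dsRNAs that reduce cell number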 (primary screen)
Cell system: Drosophila Kc and S2R+ cells
Reagents: long dsRNA against Drosophila genes
Detection: 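Cell number per well after knock-down, printed as raw plate values; calls were based on per-plate z-scores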
Direction: Kc cell number and S2R+ cell number: higher = more cells remaining
Call rule: 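Counted as a hit if cell number falls by a z-score of at least 3 within its plate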

target gene | dsRNA | Kc cell number, rep 1 | Kc cell number, rep 2 | S2R+ cell number, rep 1 | S2R+ cell number, rep 2 | Outcome
Tsp42Ee | DRSC05947 | 1.61e6 | 1.77e6 | 1.24e6 | 1.37e6 | inactive
CG7208 | DRSC16212 | 1.29e6 | 1.35e6 | 1.01e6 | 1.15e6 | inactive
CG13008 | DRSC19527 | 1.39e6 | 1.41e6 | 1.06e6 | 1.14e6 | inactive
CG13008 | DRSC19528 | 1.47e6 | 1.47e6 | 1.02e6 | 1.15e6 | inactive
CG30065 | DRSC05420 | 1.48e6 | 1.39e6 | 1.02e6 | 1.14e6 | inactive
Mccc1 | DRSC15417 | 5.27e5 | – | 7.53e5 | – | inactive
Cyp1 | DRSC20234 | 6.39e5 | – | 9.33e5 | – | inactive
CG8034 | DRSC20076 | 1.55e6 | 1.61e6 | 9.95e5 | 1.15e6 | inactive
CG9760 | DRSC11101 | 1.24e6 | 1.30e6 | 1.24e6 | 1.29e6 | inactive
CG14190 | DRSC19545 | 1.54e6 | 1.58e6 | 1.05e6 | 1.18e6 | inactive
CG15498 | DRSC15040 | 1.47e6 | 1.44e6 | 1.11e6 | 1.19e6 | inactive
CG46298 | DRSC06222 | 1.48e6 | 1.61e6 | 1.10e6 | 1.13e6 | inactive
Spf30 | DRSC11976 | 1.51e6 | 1.58e6 | 1.08e6 | 1.24e6 | inactive
CG31639 | DRSC00910 | 1.49e6 | 1.52e6 | 1.05e6 | 1.13e6 | inactive
CG2003 | DRSC15411 | 1.50e6 | 1.50e6 | 1.01e6 | 1.12e6 | inactive
CG7953 | DRSC01902 | 1.30e6 | 1.36e6 | 1.26e6 | 1.29e6 | inactive
CARPB | DRSC18437 | 6.44e5 | – | 9.18e5 | – | inactive
CARPB | DRSC18438 | 1.65e6 | 1.55e6 | 1.10e6 | 1.14e6 | inactive
Cpr49Af | DRSC07202 | 1.46e6 | 1.54e6 | 1.20e6 | 1.41e6 | inactive
Nmdmc | DRSC16760 | 1.57e6 | 1.64e6 | 1.23e6 | 1.30e6 | inactive
Mayo | DRSC14300 | 1.64e6 | 1.69e6 | 1.09e6 | 1.20e6 | inactive
CG31675 | DRSC01825 | 5.57e5 | – | 9.05e5 | – | inactive
Mst98Ca | DRSC16749 | 6.15e5 | – | 9.61e5 | – | inactive
Acp63F | DRSC08137 | 1.48e6 | 1.57e6 | 1.03e6 | 1.19e6 | inactive
Vps52 | DRSC03050 | 1.47e6 | 1.35e6 | 1.10e6 | 1.30e6 | inactive
Reph | DRSC00634 | 1.39e6 | 1.45e6 | 1.13e6 | 1.13e6 | inactive
Dlc90F | DRSC16649 | 1.57e6 | 1.67e6 | 1.22e6 | 1.33e6 | inactive
CkIIalpha-i1 | DRSC11115 | 1.34e6 | 1.46e6 | 1.24e6 | 1.34e6 | inactive
CSN1a | DRSC01951 | 1.52e6 | 1.62e6 | 1.20e6 | 1.32e6 | inactive
Cbp53E | DRSC07356 | 1.58e6 | 1.72e6 | 1.20e6 | 1.20e6 | inactive
Use1 | DRSC10180 | 1.65e6 | 1.48e6 | 1.22e6 | 1.17e6 | inactive
ppk3 | DRSC04275 | 1.53e6 | 1.57e6 | 1.28e6 | 1.33e6 | inactive
CG12824 | DRSC06173 | 1.59e6 | 1.68e6 | 1.26e6 | 1.38e6 | inactive
CG8300 | DRSC18426 | 3.16e5 | – | 6.66e5 | – | inactive
CG11076 | DRSC17197 | 1.48e6 | 1.51e6 | 1.11e6 | 1.21e6 | inactive
CG15764 | DRSC18070 | 1.60e6 | 1.55e6 | 1.11e6 | 1.22e6 | inactive
Rabex-5 | DRSC08628 | 1.39e6 | 1.47e6 | 1.16e6 | 1.13e6 | inactive
CG18585 | DRSC02678 | 1.35e6 | 1.40e6 | 6.02e5 | 1.02e6 | inactive
Atxn7 | DRSC00726 | 1.28e6 | 1.36e6 | 1.06e6 | 9.87e5 | inactive
Stat92E | DRSC16870 | 1.48e6 | 1.55e6 | 1.18e6 | 1.20e6 | inactive
Top2 | DRSC03459 | 1.58e6 | 1.80e6 | 1.23e6 | 3.64e5 | inactive
CG7299 | DRSC03043 | 1.56e6 | 1.82e6 | 1.39e6 | 1.61e6 | inactive
I-3 | DRSC20479 | 1.56e6 | 1.50e6 | 1.10e6 | 1.21e6 | inactive
lmd | DRSC15618 | 1.47e6 | 1.61e6 | 1.16e6 | 1.19e6 | inactive
CG30075 | DRSC05484 | 1.55e6 | 1.46e6 | 1.05e6 | 1.27e6 | inactive
CG42697 | DRSC05740 | 6.19e5 | – | 7.93e5 | – | inactive
Prp39 | DRSC15133 | 5.86e5 | – | 7.30e5 | – | inactive
CAH8 | DRSC15784 | 1.22e6 | 1.26e6 | 1.10e6 | 1.24e6 | inactive
CG1146 | DRSC08189 | 1.47e6 | 1.50e6 | 1.27e6 | 1.36e6 | inactive
Mkp3 | DRSC10084 | 1.65e6 | 1.61e6 | 1.29e6 | 1.38e6 | inactive
Mkp3 | DRSC10085 | 1.40e6 | 1.48e6 | 1.09e6 | 1.20e6 | inactive
CG7025 | DRSC03002 | 1.59e6 | 1.70e6 | 1.17e6 | 1.42e6 | inactive
CG34148 + P5CDh2 | DRSC13519 | 1.54e6 | 1.37e6 | 1.06e6 | 1.03e6 | inactive
l(2)k09848 | DRSC04894 | 1.38e6 | 1.46e6 | 9.83e5 | 1.11e6 | inactive
beat-IIb | DRSC13219 | 1.38e6 | 1.43e6 | 1.00e6 | 1.06e6 | inactive
beat-IIb | DRSC14816 | 1.20e6 | 1.42e6 | 1.17e6 | 1.32e6 | inactive
beat-IIb | DRSC15546 | 1.30e6 | 1.48e6 | 1.25e6 | 1.45e6 | inactive
RhoGAP16F | DRSC20025 | 1.41e6 | 1.45e6 | 1.02e6 | 1.20e6 | inactive
Mnr | DRSC20549 | 1.56e6 | 1.52e6 | 1.12e6 | 1.23e6 | inactive
Mnr | DRSC20550 | 1.41e6 | 1.37e6 | 1.01e6 | 1.16e6 | inactive
